Measured values from PMC7819943, “Rice protein-binding microarrays: a tool to detect cis-acting elements near promoter regions in rice”.
The other results are listed elsewhere or left out.

biological target: T1, OsSMF1 (Oryza sativa, UniProt Q6ZLB0 1-436); experiment: protein-binding microarray (RPBM); PBS, 2% BSA, 51.3 ng/ul salmon testes DNA, 50 uM zinc acetate, 200 nM TF, 25 C, 1 h; high values mean tight binding; settings: protein: recombinant; tags: N-terminal polyhistidine and DsRed monomer fusion (pET32a); chain copies: 2; label: CyDye5-dUTP incorporated in the synthesized complementary strand; 3' TTTTT single-stranded linker to array surface; dsDNA, one strand shown
T1 sequence: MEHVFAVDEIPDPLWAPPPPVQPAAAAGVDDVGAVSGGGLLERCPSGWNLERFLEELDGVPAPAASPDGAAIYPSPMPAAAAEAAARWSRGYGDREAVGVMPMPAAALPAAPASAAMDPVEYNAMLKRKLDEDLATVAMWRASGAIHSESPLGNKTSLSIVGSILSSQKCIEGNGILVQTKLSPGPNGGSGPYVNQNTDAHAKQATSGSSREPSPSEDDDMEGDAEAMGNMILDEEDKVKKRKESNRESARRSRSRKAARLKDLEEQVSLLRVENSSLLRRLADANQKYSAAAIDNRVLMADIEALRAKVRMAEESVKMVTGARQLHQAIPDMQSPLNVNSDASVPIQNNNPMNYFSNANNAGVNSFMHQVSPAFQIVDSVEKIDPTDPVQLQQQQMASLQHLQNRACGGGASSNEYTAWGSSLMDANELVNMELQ
In short: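 Using Ni–NTA, transcription factors fused N-terminally to polyhistidine and DsRed were purified after expression in E. coli BL21-CodonPlus. These were incubated at 200 nM with a blocked, double-stranded custom Agilent array for 1 h at 25 °C in a buffer containing 50 µM zinc acetate, and the array was washed. The binding signal is per-feature fluorescence intensity (arbitrary units) on an Axon 4000B scanner.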

Sequence | binding signal
TCCCTGGTTACTTGATTAGTCTGTGTGACGTGTAGCGGTTCGGAGTCACCTAGTGCAG | 6860 fluorescence intensity (a.u.)
CAGCCACACGCTCACACGTACTCCCGTGCAGTTGCCAGTTCGGAGTCACCTAGTGCAG | 4380 fluorescence intensity (a.u.)
TATCGCTAACGTTATCCTTACATCCACGAGGGAAATGCCGCGGAGTCACCTAGTGCAG | 31300 fluorescence intensity (a.u.)
TAGGGTTTATGTGCGTGTGTTCATAGGGGTGAGTGCGCGTCGGAGTCACCTAGTGCAG | 4250 fluorescence intensity (a.u.)
CTTCGGCCTTAGCTCCAAATCCGATGTAAATTTACCAAATCGGAGTCACCTAGTGCAG | 61700 fluorescence intensity (a.u.)
TGCGTGCCTACGCTATATTGTAGTCACCATGGTTATATTGCGGAGTCACCTAGTGCAG | 4140 fluorescence intensity (a.u.)
AAAAGACATTAGTCGATCGTACCAGTCTGACTCGAATCGTCGGAGTCACCTAGTGCAG | 3780 fluorescence intensity (a.u.)
TACTCAATCGTGCTATAAGCATATGCACTTGGCACGCATCCGGAGTCACCTAGTGCAG | 3240 fluorescence intensity (a.u.)
GTTAACTATCTCCACAAGCTTATGTAGGCCAGTAACGTGGCGGAGTCACCTAGTGCAG | 4050 fluorescence intensity (a.u.)
TTCATCATCCTCCCTTCATACCATGACACACCATCACCATCGGAGTCACCTAGTGCAG | 3350 fluorescence intensity (a.u.)
AGCCTAATTACGTCATGATTTGACAATGTAATGATACCGTCGGAGTCACCTAGTGCAG | 8210 fluorescence intensity (a.u.)
ACTTAACGAGGAATGCACAACTTCTCAATTGCCCTGTGACCGGAGTCACCTAGTGCAG | 21700 fluorescence intensity (a.u.)
TGGTAGGGAAGCAGGTGGAAGGAGGACAGGAAGGCCCAATCGGAGTCACCTAGTGCAG | 34000 fluorescence intensity (a.u.)
ATTGAGATATACGTGGAATATCAGTATATGCCACTCAATTCGGAGTCACCTAGTGCAG | 3380 fluorescence intensity (a.u.)
TTCCTGTGGGCGCTGTTCCTGGTGGCGATGACGGCGACGTCGGAGTCACCTAGTGCAG | 3310 fluorescence intensity (a.u.)
CTATATTGGATCCGCACCCCGCGTGTCAATGCAAATAGAACGGAGTCACCTAGTGCAG | 3420 fluorescence intensity (a.u.)
CATCTCAGGTGAGACCAGGAGCAATCTCTAGTCTGCCACACGGAGTCACCTAGTGCAG | 4910 fluorescence intensity (a.u.)
TACAAACCACCTATGCCTATTTGTCATTGTCACCAATATCCGGAGTCACCTAGTGCAG | 5220 fluorescence intensity (a.u.)
TCCCCTCGAGGGATGAAAATCCACATCCATATGCCTTATCCGGAGTCACCTAGTGCAG | 3380 fluorescence intensity (a.u.)
TCCGGCCCAGTAGGATGGCCCAAAGAGTACGCTTACCTGGCGGAGTCACCTAGTGCAG | 3890 fluorescence intensity (a.u.)
GATATATTCCCTTGCAACTAGGGGTGAAAATGGGGCGGGTCGGAGTCACCTAGTGCAG | 3560 fluorescence intensity (a.u.)

Sequence | binding signal
TCGTCGTTCTTGGCGCCACCACATCGCGGGAGATGAGCCACGGAGTCACCTAGTGCAG | 3240 fluorescence intensity (a.u.)
CTCTTGACCAGCCGAGCGCACCGTCATCAGGCTACATCTCCGGAGTCACCTAGTGCAG | 5290 fluorescence intensity (a.u.)
CGTCGCTTGCCCCGACGACCACCGTGTCCGCGCTCGCCTTCGGAGTCACCTAGTGCAG | 3900 fluorescence intensity (a.u.)
CTTGCGATGCGTGGTGAGTGGTGACTGTAATGTAATGGAACGGAGTCACCTAGTGCAG | 3450 fluorescence intensity (a.u.)
TTTTCTGGGCACATGTTCGTTGTTGTTATCGTCACGTATCCGGAGTCACCTAGTGCAG | 3160 fluorescence intensity (a.u.)
TTCCAAACACAGCCTAATTAAGCTAGCTGTGTCATCCGACCGGAGTCACCTAGTGCAG | 4460 fluorescence intensity (a.u.)
ATCAACGTATCTAAACCGGATGGAAACACGTATCTAAACACGGAGTCACCTAGTGCAG | 6180 fluorescence intensity (a.u.)
TCCTCACCCTCTCGCCACGTCTGCTTCGATCCCTTCTCCTCGGAGTCACCTAGTGCAG | 10800 fluorescence intensity (a.u.)
GACCCTGCCGCCCTCCATTTGGGCGGCAAGCTGACGTGGCCGGAGTCACCTAGTGCAG | 32700 fluorescence intensity (a.u.)
TTTATATTCCAACCTTTGCTTCAACCATACTCCAGTTGTACGGAGTCACCTAGTGCAG | 4050 fluorescence intensity (a.u.)
TGTGACCGGTTTTGATTAGTTAAGGGACGCCGGGTATCTGCGGAGTCACCTAGTGCAG | 31600 fluorescence intensity (a.u.)
ATTCTGCAACATTGACTAGACTCTTCTATATTGTTAATCTCGGAGTCACCTAGTGCAG | 3250 fluorescence intensity (a.u.)
AATTCTAGGTCCAGCACTGTGCTTACCTGTATAGAAGCCTCGGAGTCACCTAGTGCAG | 3200 fluorescence intensity (a.u.)
ACTTTATCCTCTCCCACGTCGCCAGCGTTCCCTTGTTGCTCGGAGTCACCTAGTGCAG | 4530 fluorescence intensity (a.u.)
TATTTTCCTTAACATTCGTGTCTTCTGAGTGTGACGCGTGCGGAGTCACCTAGTGCAG | 4280 fluorescence intensity (a.u.)
TACTTAATCTGTTGTTATCCAGCTATCTTACACGTTATTTCGGAGTCACCTAGTGCAG | 3910 fluorescence intensity (a.u.)
ATTAGTCGATCTAGGTTCGAGTTTCGCCCCTTTCTCAATACGGAGTCACCTAGTGCAG | 7770 fluorescence intensity (a.u.)
CGTGCACGTGTTCACCGGAGGTGCTCGTCAGCAAAGCAGGCGGAGTCACCTAGTGCAG | 6000 fluorescence intensity (a.u.)
TACCAATGCACCAACAAATGAGTCATTGACCACCCAATTGCGGAGTCACCTAGTGCAG | 8470 fluorescence intensity (a.u.)
ACCACTCTACCACAACCATTACGCTATCCGCCACGAGCAACGGAGTCACCTAGTGCAG | 3270 fluorescence intensity (a.u.)
CGGCGTCCACGCTCATCACCGTCTCCACCAACGCCTCGTCCGGAGTCACCTAGTGCAG | 3740 fluorescence intensity (a.u.)

Exported as labelled records: part of the list above.
CTCTTGACCAGCCGAGCGCACCGTCATCAGGCTACATCTCCGGAGTCACCTAGTGCAG
  binding signal = 5290 fluorescence intensity (a.u.)
CGTCGCTTGCCCCGACGACCACCGTGTCCGCGCTCGCCTTCGGAGTCACCTAGTGCAG
  binding signal = 3900 fluorescence intensity (a.u.)
CTTGCGATGCGTGGTGAGTGGTGACTGTAATGTAATGGAACGGAGTCACCTAGTGCAG
  binding signal = 3450 fluorescence intensity (a.u.)
